The results are deposited in PubChem (AID1347099; NCATS, 2019).

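After two days of treatment, the number of living NB1643 neuroblastoma cells was gauged by the CellTiter-Glo light signal. Each compound was tested over a dilution series reaching roughly 46 µM. The number is the fitted half-maximal cell-killing concentration, and a lower value means a more potent cytotoxic effect. Calls follow curve shape and effect size; these cell-killing curves were judged inconclusive because they fell short of an active call by being weak, partial, poorly fitted or seen only at the highest dose.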

Values are in nM. All entries here are filed as inconclusive. These entries are mostly ones the record files as inconclusive; other results of the assay are not listed here. Potencies fitted to partial, single-point or poorly fitting curves are rough. Some entries filed as inconclusive have a full curve.

O=C(c1ccccc1)c1ccc2n1CCC2C(=O)O (centres undefined) read potency 8333 nM (cytotoxic, full curve). With COC(=O)C1C2CC3c4[nH]c5cc(OC)ccc5c4CCN3CC2CC(OC(=O)c2cc(OC)c(OC)c(OC)c2)C1OC (centres undefined) the assay gave potency 33173 nM (cytotoxic, partial curve, poor fit). C[C@]12CC[C@H](O)CC1=CC[C@H]1[C@H]3CCC(=O)[C@@]3(C)CC[C@@H]12 read potency 18654 nM (cytotoxic, partial curve). With Cc1c(CN2CCN(S(C)(=O)=O)CC2)sc2c(N3CCOCC3)nc(-c3cnc(N)nc3)nc12 the assay gave potency 2093 nM (cytotoxic, full curve). For NC[C@H]1O[C@H](O[C@@H]2[C@@H](O)[C@@H](O[C@H]3O[C@H](CO)[C@@H](O)[C@H](N)[C@@H]3O)[C@H](N)C[C@@H]2N)[C@H](O)[C@@H](O)[C@H]1O the result was potency 18654 nM (cytotoxic, partial curve).

For Clc1ccc2nsnc2c1NC1=NCCN1 the result was potency 26350 nM (cytotoxic, single point). CC(=O)SCC(Cc1ccccc1)C(=O)NCC(=O)OCc1ccccc1 (centres undefined) gave potency 209.3 nM (cytotoxic, full curve, poor fit). Nc1ccc(O)cc1 read potency 21136 nM (cytotoxic, partial curve, poor fit). COC(=O)Nc1nc2ccc(C(=O)C3CC3)cc2[nH]1 gave potency 749.9 nM (cytotoxic, full curve). CC(C)C(=O)Oc1ccc(CO)cc1[C@H](CCN(C(C)C)C(C)C)c1ccccc1 read potency 26350 nM (cytotoxic, single point).

O=c1oc2cc(O)ccc2s1 gave potency 23484 nM (cytotoxic, partial curve). CC(=O)C1=C(O)C=C2Oc3c(C(C)=O)c(O)c(C)c(O)c3C2(C)C1=O (centres undefined) read potency 4686 nM (cytotoxic, partial curve). With CN(C)c1nc(N(C)C)nc(N(C)C)n1 the assay gave potency 33173 nM (cytotoxic, single point). Cc1c(Cl)cccc1Nc1ccccc1C(=O)O gave potency 33498 nM (cytotoxic, single point). With C[C@]12C=CC(=O)C=C1CC[C@@H]1[C@@H]2C(=O)C[C@@]2(C)[C@H]1CC[C@]2(O)C(=O)CO the assay gave potency 16202 nM (cytotoxic, single point).

For Nc1ccc(S(=O)(=O)Nc2ccnn2-c2ccccc2)cc1 the result was potency 33173 nM (cytotoxic, single point). For O=C(c1ccc(F)c(F)c1Nc1ccc(I)cc1F)N1CC(O)([C@H]2CCCCN2)C1 the result was potency 468.6 nM (cytotoxic, full curve). For Clc1ccc(C2(c3ccc(-c4cn[nH]c4)cc3)CCNCC2)cc1 the result was potency 37221 nM (cytotoxic, single point). O=C(NNC(=O)c1ccc(CNS(=O)(=O)c2ccc(F)c(Cl)c2)cc1)c1ccccc1 read potency 33173 nM (cytotoxic, single point). For c1ccc2c(CN3CCNCC3)cccc2c1 the result was potency 1663 nM (cytotoxic, full curve).

O=C(Oc1cccc2cccnc12)c1ccccc1 gave potency 9.4 nM (cytotoxic, full curve, poor fit). With Nc1ccc(S(N)(=O)=O)cc1 the assay gave potency 1049 nM (cytotoxic, partial curve, poor fit). CCCn1c(=O)c2[nH]c(C34CC5CC3C[C@@H](C5)C4)nc2n(CCC)c1=O gave potency 4686 nM (cytotoxic, full curve).

The last 3 entries again:

{"structure": "O=C(Oc1cccc2cccnc12)c1ccccc1", "potency (nM)": "9.4", "curve": "cytotoxic, full curve, poor fit"}
{"structure": "Nc1ccc(S(N)(=O)=O)cc1", "potency (nM)": "1049", "curve": "cytotoxic, partial curve, poor fit"}
{"structure": "CCCn1c(=O)c2[nH]c(C34CC5CC3C[C@@H](C5)C4)nc2n(CCC)c1=O", "potency (nM)": "4686", "curve": "cytotoxic, full curve"}